In experiment [1] the target is T1, human SCGB3A2 with a C-terminal FLAG tag (human) (UniProt Q96PL1).
T1 sequence: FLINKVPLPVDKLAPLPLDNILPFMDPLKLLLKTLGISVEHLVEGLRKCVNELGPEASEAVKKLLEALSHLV
Briefly: co-IP; COS-1 cells transfected with SCGB3A2-FLAG and candidate-Myc-His; media and lysate (1% CHAPS, 150 mM NaCl, 50 mM Tris-HCl pH 7.4) combined; IP with anti-FLAG gel at 4 °C overnight, washes with 500 mM NaCl; blot with anti-Myc; called pull-down in the text.

In experiment [2] the target is T2, mouse SDC1 on the surface of LLC cells (mouse (endogenous in LLC)) (UniProt P18828).
T2 sequence: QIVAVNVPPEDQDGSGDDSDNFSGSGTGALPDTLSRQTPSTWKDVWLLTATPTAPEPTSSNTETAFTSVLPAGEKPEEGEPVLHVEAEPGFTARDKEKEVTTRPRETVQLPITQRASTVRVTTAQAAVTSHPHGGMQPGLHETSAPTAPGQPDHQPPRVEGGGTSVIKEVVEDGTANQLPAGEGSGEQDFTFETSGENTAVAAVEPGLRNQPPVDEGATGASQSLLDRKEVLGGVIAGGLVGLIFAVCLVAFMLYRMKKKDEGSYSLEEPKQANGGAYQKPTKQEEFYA
Briefly: flow cytometry on cells; GST tagged mouse SCGB3A2 (1 or 3 µg) incubated with LLC, LLC-sh-Control or LLC-sh-SDC1 cells at 4 °C for 30 min; rabbit anti-mouse SCGB3A2 antibody, then labelled anti-rabbit IgG; with or without heparin; only the binder purified.

For experiment [3], the target named is T3, mouse SDC1 over-expressed on ARH-77 cells (ARH-77-mSDC1) (mouse) (UniProt P18828).
T3 sequence: T2 sequence
Briefly: flow cytometry on cells; GST tagged mouse SCGB3A2 (1 µg) incubated with ARH-77-control or ARH-77-mSDC1 cells at 4 °C for 30 min; PE-anti-rabbit IgG; with or without heparin; only the binder purified.

The target of experiment [4] is HaloTag-mouse SCGB3A2 fusion protein (mouse) (UniProt Q920H1). The experiment is described as follows: SDS-PAGE with immunoblot; SDS-PAGE image of mSCGB3A2-HT using anti-HaloTag antibody. A general note: Immunoblotting shows a protein as a band on a membrane.
In experiment [5] the target is T1, human SCGB3A2 with a C-terminal FLAG tag (human). The experiment is described as follows: co-IP; data not shown; pull-down (co-immunoprecipitation) of a candidate gene product with SCGB3A2.

The record followed here is PMC6286126, “A novel pathway of LPS uptake through syndecan-1 leading to pyroptotic cell death” (eLife, 2018).

No constants are given. Whether binding was seen depends on the method and setting. For some assays here: In cells and extracts the contact can be indirect. Some entries that bind do so weakly or less than the wild type. Where a sequence is shown, tags or fusion partners need not be part of it.

B1: syndecan-1 (SDC1) in pcDNA3.1/Myc-His (receptor, UniProt P18827 23-310)
chain: QIVATNLPPEDQDGSGDDSDNFSGSGAGALQDITLSQQTPSTWKDTQLLTAIPTSPEPTGLEATAASTSTLPAGEGPKEGEAVVLPEVEPGLTAREQEATPRPRETTQLPTTHLASTTTATTAQEPATSHPHRDMQPGHHETSTPAGPSQADLHTPHTEDGGPSATERAAEDGASSQLPAAEGSGEQDFTFETSGENTAVVAVEPDRRNQSPVDQGATGASQGLLDRKEVLGGVIAGGLVGLIFAVCLVGFMLYRMKKKDEGSYSLEEPKQANGGAYQKPTKQEEFYA
Consider B1, for which, in experiment [1], the binding entry is given as “binds”.

B2: GST tagged mouse SCGB3A2 (protein, UniProt Q920H1 22-91)
chain: LLINRLPVVDKLPVPLDDIIPSFDPLKMLLKTLGISVEHLVTGLKKCVDELGPEASEAVKKLLEALSHLV
Turning to B2, the binding entry in experiment [2] and in experiment [3] was “binds” each time.

B3: HaloTag-mouse SCGB3A2 fusion protein (protein, UniProt Q920H1 22-91)
chain: B2 chain
For B3, in experiment [4], the binding entry is recorded as “binds”.

B4: podoplanin (PDPN, T1-alpha) in pcDNA3.1/Myc-His (protein, UniProt Q86YL7 23-162)
chain: ASTGQPEDDTETTGLEGGVAMPGAEDDVVTPGTSEDRYKSGLTTLVATSVNSVTGIRIEDLPTSESTVHAQEQSPSATASNVATSHSTEKVDGDTQTTVEKDGLSTVTLVGIIVGVLLAIGFIGAIIVVVMRKMSGRYSP
As to B4, the binding result in experiment [5] is on record as “binds”.
